At least one compound was matched to its structure with a doubt left.
How the values were obtained:
Format in all cases: in vivo, human
[1] = test system: 10q22-23 and centromeric 10 in sputum epithelial cells and neutrophils; experiment: FISH on induced sputum in curcumin chemoprevention study: chromosome 10 aneusomies and 10q22-23 deletions; settings: curcumin compared to placebo, three months, trend
[2] = test system: 3p22.1 and centromeric 3 in sputum epithelial cells and neutrophils; experiment: FISH on induced sputum in curcumin chemoprevention study: centromeric 3 aneusomies and 3p22.1 deletions; settings: curcumin vs placebo, three months
[3] = Lung function tests in curcumin chemoprevention study; settings: patients versus placebo; three months
[4] = test system: sputum cells; experiment: Sputum cytology diagnosis and quantitation of inflammatory response in curcumin study; settings: three months

SMILES: COc1cc(/C=C/C(=O)CC(=O)/C=C/c2ccc(O)c(OC)c2)ccc1O [curcumin]
- FISH markers for aneuploidy of chromosome 10 (monosomy and polysomy) and deletions of 10q2-23 over time [1]: modulated downward over time
- 3p deletions and aneusomies of centromeric 3 over time [2]: decrease
- lung function over time [3]: significant improvement
- diagnosis and degree of inflammation over time [4]: no significant difference

Reference: US20070218480A1, “DETECTION AND DIAGNOSIS OF SMOKING RELATED CANCERS” (THE BOARD OF REGENTS OF THE UNIVERSITY OF TEXAS SYSTEM, priority 2006, published 2007)
